Assay results reported in PMC10276294, “Regulatory ligand binding in plant chalcone isomerase–like (CHIL) proteins” (The Journal of Biological Chemistry, 2023).
These are yes or no findings as the source states them, for the method shown.

Biological target: Type II chalcone isomerase from Medicago sativa (MsCHI-II) (Medicago sativa) (UniProt P28012)
Experiment: native gel or EMSA; native PAGE of the purified proteins alone; about 50 mM DTT in the loading buffer; both purified

B1: Type II chalcone isomerase from Medicago sativa (MsCHI-II) (enzyme, UniProt P28012 1-222)
chain: MAASITAITVENLEYPAVVTSPVTGKSYFLGGAGERGLTIEGNFIKFTAIGVYLEDIAVASLAAKWKGKSSEELLETLDFYRDIISGPFEKLIRGSKIRELSGPEYSRKVMENCVAHLKSVGTYGDAEAEAMQKFAEAFKPVNFPPGASVFYRQSPDGILGLSFSPDTSIPEKEAALIENKAVSSAVLETMIGEHAVSPDLKRCLAARLPALLNEGAFKIGN
- binding: no binding
